According to the supplement of paper PMC6411743:
± gives the standard deviation of the averaged measurements. Only a part is listed here, and it is no random draw.

How the values were obtained:
Assay in all cases: NP40-soluble protein abundance relative to vehicle (solubility fold change) (ratio); higher = more soluble protein in presence of ATP
[1] = target: T1, UAP1L1 (UniProt Q3KQV9)
T1 sequence (whole entry): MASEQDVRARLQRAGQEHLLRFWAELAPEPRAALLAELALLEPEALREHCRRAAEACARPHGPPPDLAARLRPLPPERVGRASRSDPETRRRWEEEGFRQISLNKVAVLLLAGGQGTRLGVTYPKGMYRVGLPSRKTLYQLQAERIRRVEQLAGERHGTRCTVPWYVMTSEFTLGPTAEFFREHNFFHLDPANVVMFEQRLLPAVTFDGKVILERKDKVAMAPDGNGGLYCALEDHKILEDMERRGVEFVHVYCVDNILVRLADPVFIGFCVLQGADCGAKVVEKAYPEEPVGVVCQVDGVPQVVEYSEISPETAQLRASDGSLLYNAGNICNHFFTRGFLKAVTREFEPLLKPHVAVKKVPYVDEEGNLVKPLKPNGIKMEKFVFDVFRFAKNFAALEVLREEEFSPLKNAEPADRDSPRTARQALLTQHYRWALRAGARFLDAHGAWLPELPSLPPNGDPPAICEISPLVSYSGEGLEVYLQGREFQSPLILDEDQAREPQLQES
Summary of the method: (§1)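 Data come from three independent experiments in which Dounce-homogenised Jurkat crude lysate was treated at eight concentrations from 0.1 to 10 mM. Treatment ran 10 min at room temperature and then 3 min at 37 °C, after which 0.8% NP40 and benzonase were added for 60 min at 4 °C before ultracentrifugation. The supernatant underwent TMT labelling and LC-MS/MS, and vsn-normalised intensities were expressed as fold change against the detergent-processed vehicle in each replicate.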

[2] = target: T2, UniProt Q14444
T2 sequence (whole entry): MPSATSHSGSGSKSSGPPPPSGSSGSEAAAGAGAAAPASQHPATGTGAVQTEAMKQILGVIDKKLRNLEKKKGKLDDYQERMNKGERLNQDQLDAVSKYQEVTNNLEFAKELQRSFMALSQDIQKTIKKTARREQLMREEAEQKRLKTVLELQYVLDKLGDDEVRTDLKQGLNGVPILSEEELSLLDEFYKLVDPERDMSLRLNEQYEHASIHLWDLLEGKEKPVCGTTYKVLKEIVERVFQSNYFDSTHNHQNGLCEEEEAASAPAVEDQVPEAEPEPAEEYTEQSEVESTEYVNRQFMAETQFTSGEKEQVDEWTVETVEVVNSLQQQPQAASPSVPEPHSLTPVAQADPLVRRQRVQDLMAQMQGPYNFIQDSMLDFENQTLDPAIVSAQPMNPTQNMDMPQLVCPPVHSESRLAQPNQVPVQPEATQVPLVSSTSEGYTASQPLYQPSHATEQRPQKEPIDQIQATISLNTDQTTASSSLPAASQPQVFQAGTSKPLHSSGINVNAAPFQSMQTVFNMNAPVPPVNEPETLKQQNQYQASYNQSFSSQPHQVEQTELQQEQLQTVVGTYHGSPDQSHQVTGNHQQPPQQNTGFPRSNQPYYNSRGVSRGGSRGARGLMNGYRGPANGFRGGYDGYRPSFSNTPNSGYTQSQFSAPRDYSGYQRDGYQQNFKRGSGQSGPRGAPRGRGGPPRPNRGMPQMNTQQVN
Summary of the method: as §1

[3] = target: T3, UniProt Q14697 and related entries
T3 sequence (whole entry): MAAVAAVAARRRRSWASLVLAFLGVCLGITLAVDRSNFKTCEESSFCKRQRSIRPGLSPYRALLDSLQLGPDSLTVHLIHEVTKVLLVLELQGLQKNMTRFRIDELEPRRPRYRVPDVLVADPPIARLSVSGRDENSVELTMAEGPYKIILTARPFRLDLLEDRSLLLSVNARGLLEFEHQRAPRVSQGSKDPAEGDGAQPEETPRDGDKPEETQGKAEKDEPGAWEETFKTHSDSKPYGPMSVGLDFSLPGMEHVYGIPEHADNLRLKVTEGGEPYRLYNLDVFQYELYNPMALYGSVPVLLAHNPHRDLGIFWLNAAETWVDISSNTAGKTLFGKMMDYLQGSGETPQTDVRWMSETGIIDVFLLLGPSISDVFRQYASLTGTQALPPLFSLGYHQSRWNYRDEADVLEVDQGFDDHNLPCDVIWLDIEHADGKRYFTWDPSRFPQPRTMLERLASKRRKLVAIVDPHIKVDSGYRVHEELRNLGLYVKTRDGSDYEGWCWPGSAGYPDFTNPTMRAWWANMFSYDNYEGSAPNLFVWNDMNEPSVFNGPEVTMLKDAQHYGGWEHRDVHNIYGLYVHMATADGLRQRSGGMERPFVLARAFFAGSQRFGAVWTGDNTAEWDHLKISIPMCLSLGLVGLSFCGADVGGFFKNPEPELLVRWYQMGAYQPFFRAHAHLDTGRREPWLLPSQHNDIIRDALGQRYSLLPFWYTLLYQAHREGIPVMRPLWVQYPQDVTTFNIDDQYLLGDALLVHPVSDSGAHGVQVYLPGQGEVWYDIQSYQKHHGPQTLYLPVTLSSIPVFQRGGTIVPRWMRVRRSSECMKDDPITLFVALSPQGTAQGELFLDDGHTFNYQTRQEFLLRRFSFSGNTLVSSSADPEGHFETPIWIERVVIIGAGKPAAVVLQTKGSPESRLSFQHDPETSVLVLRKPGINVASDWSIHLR
Summary of the method: as §1

[4] = target: T4, UniProt Q15067-2
T4 sequence (whole entry): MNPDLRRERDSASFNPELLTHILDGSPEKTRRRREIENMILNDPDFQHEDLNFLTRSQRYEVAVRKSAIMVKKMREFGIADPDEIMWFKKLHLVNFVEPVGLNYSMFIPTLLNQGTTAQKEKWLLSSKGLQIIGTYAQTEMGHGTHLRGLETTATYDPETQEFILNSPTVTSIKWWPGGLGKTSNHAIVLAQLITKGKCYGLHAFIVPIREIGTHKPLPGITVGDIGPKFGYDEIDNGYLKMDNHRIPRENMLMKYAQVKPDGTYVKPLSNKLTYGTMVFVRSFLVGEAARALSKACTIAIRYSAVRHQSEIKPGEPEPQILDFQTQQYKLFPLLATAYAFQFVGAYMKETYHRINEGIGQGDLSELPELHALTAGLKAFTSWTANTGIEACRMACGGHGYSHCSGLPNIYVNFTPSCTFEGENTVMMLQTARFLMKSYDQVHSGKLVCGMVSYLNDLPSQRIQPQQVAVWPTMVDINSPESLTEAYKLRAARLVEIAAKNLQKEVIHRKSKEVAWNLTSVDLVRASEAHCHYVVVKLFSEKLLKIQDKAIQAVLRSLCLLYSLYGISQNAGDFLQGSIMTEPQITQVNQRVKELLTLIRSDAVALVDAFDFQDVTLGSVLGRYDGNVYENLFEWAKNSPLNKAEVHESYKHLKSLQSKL
Summary of the method: as §1

Question: How did the NP40-soluble protein abundance ([1]; concentration: 1mM) turn out when `Nc1ncnc2c1ncn2[C@@H]1O[C@H](COP(=O)(O)OP(=O)(O)OP(=O)(O)O)[C@@H](O)[C@H]1O` [adenosine triphosphate] was run?
Answer: Its NP40-soluble protein abundance is 0.988 ± 0.073.

Question: What about the NP40-soluble protein abundance ([1]; concentration: 2mM) of the same compound?
Answer: Its NP40-soluble protein abundance is 1.05 ± 0.052.

Question: What about the NP40-soluble protein abundance ([1]; concentration: 4mM) of the same compound?
Answer: Its NP40-soluble protein abundance is 1.01 ± 0.044.

Question: And the NP40-soluble protein abundance ([1]; concentration: 6mM)?
Answer: Its NP40-soluble protein abundance is 1.02 ± 0.092.

Question: What about the NP40-soluble protein abundance ([1]; concentration: 8mM) of the same compound?
Answer: The NP40-soluble protein abundance was 0.968 ± 0.038.

Question: What about the NP40-soluble protein abundance ([1]; concentration: 10mM) of the same compound?
Answer: The NP40-soluble protein abundance was 1.07 ± 0.071.

Question: What about the NP40-soluble protein abundance ([2]; concentration: 1mM) of the same compound?
Answer: The NP40-soluble protein abundance was 1.07 ± 0.072.

Question: And the NP40-soluble protein abundance ([2]; concentration: 2mM)?
Answer: The NP40-soluble protein abundance was 1.08 ± 0.015.

Question: And the NP40-soluble protein abundance ([2]; concentration: 4mM)?
Answer: The NP40-soluble protein abundance was 1.09 ± 0.034.

Question: What about the NP40-soluble protein abundance ([2]; concentration: 6mM) of the same compound?
Answer: Its NP40-soluble protein abundance is 1.18 ± 0.038.

Question: What about the NP40-soluble protein abundance ([2]; concentration: 8mM) of the same compound?
Answer: The NP40-soluble protein abundance was 1.12 ± 0.037.

Question: And the NP40-soluble protein abundance ([2]; concentration: 10mM)?
Answer: The NP40-soluble protein abundance was 1.1 ± 0.052.

Question: What about the NP40-soluble protein abundance ([3]; concentration: 1mM) of the same compound?
Answer: The NP40-soluble protein abundance was 0.994 ± 0.083.

Question: And the NP40-soluble protein abundance ([3]; concentration: 2mM)?
Answer: The NP40-soluble protein abundance was 0.948 ± 0.076.

Question: What about the NP40-soluble protein abundance ([3]; concentration: 4mM) of the same compound?
Answer: Its NP40-soluble protein abundance is 0.948 ± 0.069.

Question: And the NP40-soluble protein abundance ([3]; concentration: 6mM)?
Answer: The NP40-soluble protein abundance was 0.913 ± 0.11.

Question: What about the NP40-soluble protein abundance ([3]; concentration: 8mM) of the same compound?
Answer: Its NP40-soluble protein abundance is 0.977 ± 0.051.

Question: What about the NP40-soluble protein abundance ([3]; concentration: 10mM) of the same compound?
Answer: The NP40-soluble protein abundance was 0.944 ± 0.059.

Question: And the NP40-soluble protein abundance ([4]; concentration: 1mM)?
Answer: The NP40-soluble protein abundance was 1 ± 0.081.

Question: And the NP40-soluble protein abundance ([4]; concentration: 2mM)?
Answer: Its NP40-soluble protein abundance is 0.988 ± 0.072.

Question: What about the NP40-soluble protein abundance ([4]; concentration: 4mM) of the same compound?
Answer: The NP40-soluble protein abundance was 0.952 ± 0.046.

Question: What about the NP40-soluble protein abundance ([4]; concentration: 6mM) of the same compound?
Answer: Its NP40-soluble protein abundance is 0.909 ± 0.082.

Question: And the NP40-soluble protein abundance ([4]; concentration: 8mM)?
Answer: The NP40-soluble protein abundance was 0.969 ± 0.031.

Question: And the NP40-soluble protein abundance ([4]; concentration: 10mM)?
Answer: Its NP40-soluble protein abundance is 0.975 ± 0.073.
